Measured values taken from patent US20030036505A1.
Results are given in words; binding and its absence hold for the method and conditions named. Binding seen in cells or lysates may run through a third protein. Some results given as binding are weak or reduced against the parent protein; the word gives no strength. Where a sequence is shown, tags or fusion partners need not be part of it.

The chains behind the UniProt entries cited, without tags or fusion partners.
UniProt Q60631: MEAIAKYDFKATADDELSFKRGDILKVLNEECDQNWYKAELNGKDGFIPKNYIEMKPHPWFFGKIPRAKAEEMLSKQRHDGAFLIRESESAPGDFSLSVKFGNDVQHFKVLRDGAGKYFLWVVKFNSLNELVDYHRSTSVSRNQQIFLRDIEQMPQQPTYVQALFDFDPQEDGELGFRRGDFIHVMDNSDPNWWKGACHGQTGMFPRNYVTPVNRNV

Biological target: Grb2 (25 kDa Grb2 protein) (murine (endogenous in murine FD-Fms cells)) (UniProt Q60631)
Test: GST pull-down from lysates of unstimulated or M-CSF-stimulated FD-Fms cells, anti-Grb2 immunoblot

binding: binds
B1: GST fusion with the proline-rich domain of Gab3 (protein, murine, UniProt Q8BSM5 396-458, looked up, not shown: a dimerising Fc or GST)
chain: VPMSPKGTASELRPHCSQDDYIPMSSSMLPELPADLEPPPVNRNLKPQRKSRPPPLDSRNLST
